Data taken from the supplement of paper PMC10849652.
The other results are listed elsewhere or left out.

Protein sequences, listed by entry. Tags and fused reporters are not part of them. Lines headed by an entry give the natural chain unless they say otherwise; changes in a name come on top.
UniProt Q9UK41: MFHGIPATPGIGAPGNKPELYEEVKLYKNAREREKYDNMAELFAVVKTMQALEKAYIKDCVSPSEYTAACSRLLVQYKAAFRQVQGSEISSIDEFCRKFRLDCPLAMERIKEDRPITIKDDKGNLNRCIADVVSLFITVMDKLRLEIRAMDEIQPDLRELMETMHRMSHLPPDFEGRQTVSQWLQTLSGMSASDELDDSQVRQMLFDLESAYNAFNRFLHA
UniProt Q9BV38: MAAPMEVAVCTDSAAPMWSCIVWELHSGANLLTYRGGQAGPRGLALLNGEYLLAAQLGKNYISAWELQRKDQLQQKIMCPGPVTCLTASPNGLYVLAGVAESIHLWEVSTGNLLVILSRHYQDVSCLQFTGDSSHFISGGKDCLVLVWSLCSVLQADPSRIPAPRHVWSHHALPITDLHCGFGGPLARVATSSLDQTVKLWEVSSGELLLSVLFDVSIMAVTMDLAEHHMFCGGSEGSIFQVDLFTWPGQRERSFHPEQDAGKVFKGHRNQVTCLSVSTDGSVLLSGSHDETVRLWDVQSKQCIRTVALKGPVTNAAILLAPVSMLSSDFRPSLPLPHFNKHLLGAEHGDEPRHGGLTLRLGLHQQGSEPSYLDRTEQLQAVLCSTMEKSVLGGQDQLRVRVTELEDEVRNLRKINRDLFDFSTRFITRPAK
UniProt Q9H267: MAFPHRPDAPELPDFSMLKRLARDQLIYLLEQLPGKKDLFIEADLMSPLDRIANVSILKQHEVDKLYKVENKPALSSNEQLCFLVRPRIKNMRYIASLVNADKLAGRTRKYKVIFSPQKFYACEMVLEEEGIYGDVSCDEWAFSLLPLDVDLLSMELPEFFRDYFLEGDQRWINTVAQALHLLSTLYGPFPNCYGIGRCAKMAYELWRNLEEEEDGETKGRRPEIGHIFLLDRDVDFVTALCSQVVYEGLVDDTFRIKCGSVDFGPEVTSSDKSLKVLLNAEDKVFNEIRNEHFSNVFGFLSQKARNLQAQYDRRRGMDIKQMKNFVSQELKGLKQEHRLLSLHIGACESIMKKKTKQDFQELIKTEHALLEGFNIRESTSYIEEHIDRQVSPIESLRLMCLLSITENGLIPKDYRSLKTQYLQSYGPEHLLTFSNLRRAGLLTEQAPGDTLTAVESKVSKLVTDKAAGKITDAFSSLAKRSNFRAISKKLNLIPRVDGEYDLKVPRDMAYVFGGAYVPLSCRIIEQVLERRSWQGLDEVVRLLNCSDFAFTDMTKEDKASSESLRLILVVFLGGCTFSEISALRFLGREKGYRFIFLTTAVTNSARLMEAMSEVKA
UniProt P98170, whole entry, looked up: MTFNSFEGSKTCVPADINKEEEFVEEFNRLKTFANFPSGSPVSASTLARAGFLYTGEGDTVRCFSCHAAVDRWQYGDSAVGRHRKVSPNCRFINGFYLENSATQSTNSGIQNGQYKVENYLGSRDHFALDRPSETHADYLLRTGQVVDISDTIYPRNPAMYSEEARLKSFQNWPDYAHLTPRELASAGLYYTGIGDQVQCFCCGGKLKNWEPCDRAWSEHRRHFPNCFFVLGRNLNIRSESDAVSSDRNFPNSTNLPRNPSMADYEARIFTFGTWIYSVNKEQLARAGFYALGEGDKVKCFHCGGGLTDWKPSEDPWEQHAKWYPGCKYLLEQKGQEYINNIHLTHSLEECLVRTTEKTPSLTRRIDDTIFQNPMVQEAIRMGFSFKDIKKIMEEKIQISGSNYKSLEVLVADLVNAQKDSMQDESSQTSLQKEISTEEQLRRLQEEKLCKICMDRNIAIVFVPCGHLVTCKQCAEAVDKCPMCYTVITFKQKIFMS
UniProt Q641Q2, whole entry, looked up: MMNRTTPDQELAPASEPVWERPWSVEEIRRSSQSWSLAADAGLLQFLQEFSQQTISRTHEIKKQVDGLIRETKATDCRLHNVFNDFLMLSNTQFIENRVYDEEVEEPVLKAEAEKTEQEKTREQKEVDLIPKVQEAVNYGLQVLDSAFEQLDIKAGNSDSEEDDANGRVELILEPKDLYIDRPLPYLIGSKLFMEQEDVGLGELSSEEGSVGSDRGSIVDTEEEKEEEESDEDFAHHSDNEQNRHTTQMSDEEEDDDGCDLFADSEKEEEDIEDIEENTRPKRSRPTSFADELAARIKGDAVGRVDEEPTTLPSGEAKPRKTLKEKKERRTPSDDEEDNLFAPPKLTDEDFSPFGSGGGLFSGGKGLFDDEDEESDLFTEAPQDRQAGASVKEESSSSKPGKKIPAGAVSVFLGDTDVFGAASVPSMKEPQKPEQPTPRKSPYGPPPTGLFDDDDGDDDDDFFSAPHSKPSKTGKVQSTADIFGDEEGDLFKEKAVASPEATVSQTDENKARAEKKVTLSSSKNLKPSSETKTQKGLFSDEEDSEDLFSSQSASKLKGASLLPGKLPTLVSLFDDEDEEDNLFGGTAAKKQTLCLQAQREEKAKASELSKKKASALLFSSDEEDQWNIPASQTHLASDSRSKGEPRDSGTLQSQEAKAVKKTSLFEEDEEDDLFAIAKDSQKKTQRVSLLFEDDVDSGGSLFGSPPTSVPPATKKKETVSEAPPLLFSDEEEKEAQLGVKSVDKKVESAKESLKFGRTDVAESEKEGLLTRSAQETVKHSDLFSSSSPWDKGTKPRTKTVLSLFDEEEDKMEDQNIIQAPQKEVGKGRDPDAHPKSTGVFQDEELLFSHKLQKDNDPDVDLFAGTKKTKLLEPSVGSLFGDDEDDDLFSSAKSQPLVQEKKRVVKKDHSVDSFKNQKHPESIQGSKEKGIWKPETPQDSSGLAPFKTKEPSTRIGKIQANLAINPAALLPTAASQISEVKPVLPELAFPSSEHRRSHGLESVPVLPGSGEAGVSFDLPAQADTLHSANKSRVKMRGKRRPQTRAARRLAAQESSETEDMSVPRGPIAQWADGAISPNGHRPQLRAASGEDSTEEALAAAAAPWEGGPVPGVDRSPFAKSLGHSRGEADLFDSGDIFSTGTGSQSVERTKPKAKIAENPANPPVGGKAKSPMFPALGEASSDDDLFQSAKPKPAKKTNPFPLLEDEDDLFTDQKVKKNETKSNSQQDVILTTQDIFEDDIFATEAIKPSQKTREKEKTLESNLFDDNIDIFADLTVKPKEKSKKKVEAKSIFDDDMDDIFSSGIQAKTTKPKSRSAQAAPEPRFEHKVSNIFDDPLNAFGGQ
UniProt O43379: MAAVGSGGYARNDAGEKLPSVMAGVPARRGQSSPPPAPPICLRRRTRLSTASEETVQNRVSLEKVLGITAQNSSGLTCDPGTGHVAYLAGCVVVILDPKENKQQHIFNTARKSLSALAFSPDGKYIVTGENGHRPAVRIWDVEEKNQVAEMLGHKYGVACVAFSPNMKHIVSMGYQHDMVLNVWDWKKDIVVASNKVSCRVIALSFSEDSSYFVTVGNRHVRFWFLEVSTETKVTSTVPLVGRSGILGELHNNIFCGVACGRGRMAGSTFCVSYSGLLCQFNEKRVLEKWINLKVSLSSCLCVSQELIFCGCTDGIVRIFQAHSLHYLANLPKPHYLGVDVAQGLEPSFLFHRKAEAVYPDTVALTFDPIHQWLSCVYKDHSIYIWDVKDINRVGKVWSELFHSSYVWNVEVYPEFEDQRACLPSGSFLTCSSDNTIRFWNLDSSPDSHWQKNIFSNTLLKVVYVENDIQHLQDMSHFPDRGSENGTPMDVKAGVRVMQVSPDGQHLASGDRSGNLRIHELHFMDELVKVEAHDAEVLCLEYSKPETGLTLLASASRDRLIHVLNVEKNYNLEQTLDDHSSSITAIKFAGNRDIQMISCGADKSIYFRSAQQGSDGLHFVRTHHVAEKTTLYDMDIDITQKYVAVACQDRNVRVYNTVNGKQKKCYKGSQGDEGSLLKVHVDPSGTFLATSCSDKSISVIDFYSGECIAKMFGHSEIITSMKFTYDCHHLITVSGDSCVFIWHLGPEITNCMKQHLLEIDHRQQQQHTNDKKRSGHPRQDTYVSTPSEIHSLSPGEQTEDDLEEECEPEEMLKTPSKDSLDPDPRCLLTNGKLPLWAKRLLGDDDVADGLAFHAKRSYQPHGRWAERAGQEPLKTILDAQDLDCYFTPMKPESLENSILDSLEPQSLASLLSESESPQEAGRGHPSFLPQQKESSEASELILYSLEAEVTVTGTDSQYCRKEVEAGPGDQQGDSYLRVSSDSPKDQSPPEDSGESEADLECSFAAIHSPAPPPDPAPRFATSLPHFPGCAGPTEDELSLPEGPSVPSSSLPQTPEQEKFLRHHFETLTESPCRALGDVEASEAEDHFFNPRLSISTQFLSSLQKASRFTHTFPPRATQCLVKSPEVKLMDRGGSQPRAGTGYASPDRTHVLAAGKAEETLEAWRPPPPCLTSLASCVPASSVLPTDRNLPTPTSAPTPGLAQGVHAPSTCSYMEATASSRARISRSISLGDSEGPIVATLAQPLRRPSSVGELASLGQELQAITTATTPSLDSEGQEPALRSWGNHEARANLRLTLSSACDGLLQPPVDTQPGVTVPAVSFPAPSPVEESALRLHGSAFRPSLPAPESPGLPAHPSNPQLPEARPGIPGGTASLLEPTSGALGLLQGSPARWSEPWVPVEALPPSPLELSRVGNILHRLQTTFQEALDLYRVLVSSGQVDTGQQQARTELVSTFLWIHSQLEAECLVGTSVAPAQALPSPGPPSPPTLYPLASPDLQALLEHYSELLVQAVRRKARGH
UniProt Q99986: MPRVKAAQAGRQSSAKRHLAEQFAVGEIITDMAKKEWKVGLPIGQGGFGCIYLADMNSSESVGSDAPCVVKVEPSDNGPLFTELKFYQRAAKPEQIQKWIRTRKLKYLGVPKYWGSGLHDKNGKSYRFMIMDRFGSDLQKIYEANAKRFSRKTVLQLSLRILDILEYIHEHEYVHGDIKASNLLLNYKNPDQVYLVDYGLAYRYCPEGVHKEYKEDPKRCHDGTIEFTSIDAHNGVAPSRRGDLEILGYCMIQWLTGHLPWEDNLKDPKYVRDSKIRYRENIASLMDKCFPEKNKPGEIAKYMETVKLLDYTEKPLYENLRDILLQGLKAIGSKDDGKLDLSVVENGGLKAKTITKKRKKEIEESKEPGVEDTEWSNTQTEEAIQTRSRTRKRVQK
UniProt P57081: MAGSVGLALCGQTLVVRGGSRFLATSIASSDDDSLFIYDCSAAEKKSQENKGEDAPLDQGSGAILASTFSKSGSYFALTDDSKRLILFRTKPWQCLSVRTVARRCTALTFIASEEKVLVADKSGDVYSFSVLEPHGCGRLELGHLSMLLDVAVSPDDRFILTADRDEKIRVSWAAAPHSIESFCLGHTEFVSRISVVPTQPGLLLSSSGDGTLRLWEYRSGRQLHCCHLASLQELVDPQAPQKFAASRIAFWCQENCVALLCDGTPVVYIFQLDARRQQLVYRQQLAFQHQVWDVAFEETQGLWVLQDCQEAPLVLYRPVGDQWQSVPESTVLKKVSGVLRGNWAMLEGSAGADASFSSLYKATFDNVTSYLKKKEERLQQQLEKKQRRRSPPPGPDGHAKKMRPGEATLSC
UniProt Q9P253: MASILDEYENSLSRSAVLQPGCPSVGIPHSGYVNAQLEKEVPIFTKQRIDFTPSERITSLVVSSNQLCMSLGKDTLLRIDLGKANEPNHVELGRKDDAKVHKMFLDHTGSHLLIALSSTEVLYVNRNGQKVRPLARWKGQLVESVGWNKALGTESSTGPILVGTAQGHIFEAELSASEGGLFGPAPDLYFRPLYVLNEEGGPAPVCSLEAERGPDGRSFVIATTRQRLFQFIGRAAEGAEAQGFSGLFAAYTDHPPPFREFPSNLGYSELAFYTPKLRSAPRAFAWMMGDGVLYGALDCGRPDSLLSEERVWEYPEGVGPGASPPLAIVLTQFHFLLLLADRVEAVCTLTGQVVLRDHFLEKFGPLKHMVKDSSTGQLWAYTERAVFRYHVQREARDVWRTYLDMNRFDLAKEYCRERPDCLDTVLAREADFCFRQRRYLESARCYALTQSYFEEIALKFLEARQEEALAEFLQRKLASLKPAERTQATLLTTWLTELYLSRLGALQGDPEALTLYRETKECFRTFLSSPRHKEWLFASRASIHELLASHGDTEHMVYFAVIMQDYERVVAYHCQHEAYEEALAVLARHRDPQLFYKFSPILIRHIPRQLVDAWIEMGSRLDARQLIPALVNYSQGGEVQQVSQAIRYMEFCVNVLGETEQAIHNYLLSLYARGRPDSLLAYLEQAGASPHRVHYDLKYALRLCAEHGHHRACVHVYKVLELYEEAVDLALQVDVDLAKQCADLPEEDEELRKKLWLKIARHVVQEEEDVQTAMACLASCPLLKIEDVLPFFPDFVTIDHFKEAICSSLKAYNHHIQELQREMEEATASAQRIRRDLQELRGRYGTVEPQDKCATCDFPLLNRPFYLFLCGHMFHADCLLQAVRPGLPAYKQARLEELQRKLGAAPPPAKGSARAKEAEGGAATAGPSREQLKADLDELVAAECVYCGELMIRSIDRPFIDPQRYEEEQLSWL

What was measured:
Test in all cases: log2 fold change, soluble protein after heating vs DMSO (PISA); higher = thermal stabilisation; K562 cells, 10 uM, 30 min; active = over 0.2 and 3.5 SD of the protein, either way, in both replicates (recomputed)
[1] = compound: CC[C@@H]1C(=O)N(C)c2cnc(Nc3ccc(C(=O)NC4CCN(C)CC4)cc3OC)nc2N1C1CCCC1
Procedure, shortened: (§1)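 Values are thermal stability changes relative to control samples and are taken from duplicates. They are stated as log2 fold changes. Before quantification by TMTpro 16plex LC-MS/MS with equalised channel sums, K562 cells at 2×10^6 cells/mL were treated with 10 μM compound for 30 min, heated in aliquots for 3 min across 48°C-58°C, pooled, extracted in PBS with 0.5% NP-40 at 4°C, and centrifuged at 21,000xg for 90 min to give the soluble supernatant.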

volasertib = compound: CC[C@@H]1C(=O)N(C)c2cnc(Nc3ccc(C(=O)N[C@H]4CC[C@H](N5CCN(CC6CC6)CC5)CC4)cc3OC)nc2N1C(C)C [volasertib]
Procedure, shortened: as §1

[2] = compound: CC[C@H](C)N1C=C(C2=C(C=C(C=C21)C3=CN=C(C=C3)N4CCNCC4)C(=O)NCC5=C(C=C(NC5=O)C)C)C
Procedure, shortened: as §1

epoxomicin = compound: CC[C@H](C)[C@@H](C(=O)N[C@@H]([C@@H](C)O)C(=O)N[C@@H](CC(C)C)C(=O)[C@]1(CO1)C)NC(=O)[C@H]([C@@H](C)CC)N(C)C(=O)C [epoxomicin]
Procedure, shortened: as §1

[3] = compound: CCn1cc(-c2ccnc3[nH]c(-c4cccc(CN(C)C)c4)cc23)c(-c2ccc(NC(=O)N(C)C)cc2)n1
Procedure, shortened: as §1

[4] = compound: CN(C)CC(=O)Nc1ccc2[nH]c(=O)c3ccccc3c2c1
Procedure, shortened: as §1

[5] = compound: CN1C2=C(C3=C1C(=O)N(N=C3)CC4=CC(=CC=C4)N)SC(=C2)S(=O)C
Procedure, shortened: as §1

[6] = compound: CN1CCC(CNc2ccc3ncc(-c4cccc(OC(F)(F)F)c4)n3n2)CC1
Procedure, shortened: as §1

saracatinib = compound: CN1CCN(CCOc2cc(OC3CCOCC3)c3c(Nc4c(Cl)ccc5c4OCO5)ncnc3c2)CC1 [saracatinib]
Procedure, shortened: as §1

sotrastaurin = compound: CN1CCN(c2nc(C3=C(c4c[nH]c5ccccc45)C(=O)NC3=O)c3ccccc3n2)CC1 [sotrastaurin]
Procedure, shortened: as §1

Tubastatin A = compound: CN1CCc2c(c3ccccc3n2Cc2ccc(C(=O)NO)cc2)C1 [Tubastatin A]
Procedure, shortened: as §1

[7] = compound: CNC(=O)C1=CC=CC=C1NC2=NC(=NC=C2Cl)NC3=C(C=C(C=C3)N4CCOCC4)OC
Procedure, shortened: as §1

defactinib = compound: CNC(=O)c1ccc(Nc2ncc(C(F)(F)F)c(NCc3nccnc3N(C)S(C)(=O)=O)n2)cc1 [defactinib]
Procedure, shortened: as §1

rucaparib = compound: CNCc1ccc(-c2[nH]c3cc(F)cc4c3c2CCNC4=O)cc1 [rucaparib]
Procedure, shortened: as §1

[8] = compound: CNc1nc(-c2ccc3c(N)n[nH]c3c2)cc(N2C[C@@H](C(=O)NC3CCCCC3)CC[C@H]2C)n1
Procedure, shortened: as §1

encorafenib = compound: COC(=O)N[C@@H](C)CNc1nccc(-c2cn(C(C)C)nc2-c2cc(Cl)cc(NS(C)(=O)=O)c2F)n1 [encorafenib]
Procedure, shortened: as §1

[9] = compound: COC(=O)[C@H](CCSC)NC(=O)C1=C(C=C(C=C1)NC[C@H](CS)N)C2=CC=CC=C2
Procedure, shortened: as §1

[10] = compound: CCn1c(C(=O)N(C2CC2)C2CC2)cc2c3c(ncn3C)c(Nc3cc(C)n(C)n3)nc21
Procedure, shortened: as §1

rosiglitazone = compound: CN(CCOC1=CC=C(C=C1)C[C@H]2C(=O)NC(=O)S2)C3=CC=CC=N3 (racemic) [rosiglitazone]
Procedure, shortened: as §1

alvocidib = compound: CN1CC[C@H](c2c(O)cc(O)c3c(=O)cc(-c4ccccc4Cl)oc23)[C@H](O)C1 [alvocidib]
Procedure, shortened: as §1

Measured: log2 fold change

WDHD1 (UniProt O75717)
active: volasertib -0.458
inactive: [1] -0.209 | [2] 0.079 | epoxomicin 0.071 | [3] -0.033 | [4] 0.051 | [5] -0.063 | [6] -0.118 | saracatinib -0.027 | sotrastaurin -0.067 | Tubastatin A 0.079 | [7] 0.075 | defactinib -0.201 | rucaparib -0.06 | [8] 0 | encorafenib 0.119 | [9] -0.022

VPS28 (UniProt Q9UK41)
active: volasertib -0.3
inactive: [1] -0.057 | [2] 0.032 | epoxomicin 0.09 | [3] -0.048 | [4] 0.011 | [5] -0.038 | [6] -0.139 | saracatinib -0.101 | sotrastaurin -0.078 | Tubastatin A 0.072 | [7] 0.043 | defactinib -0.172 | rucaparib -0.044 | [8] -0.046 | encorafenib 0.082 | [9] -0.033

WDR18 (UniProt Q9BV38)
inactive: [1] 0.034 | volasertib -0.1 | [2] 0.022 | epoxomicin 0.016 | [3] -0.026 | [4] -0.017 | [5] 0.018 | [6] -0.002 | saracatinib 0.057 | sotrastaurin -0.001 | Tubastatin A 0.008 | [7] -0.032 | defactinib -0.051 | rucaparib -0.009 | [8] -0.038 | encorafenib 0.001 | [9] 0.003

VPS33B (UniProt Q9H267)
active: [2] 0.284
inactive: [1] -0.129 | volasertib -0.378 | epoxomicin 0.022 | [3] -0.039 | [4] 0.048 | [5] 0.091 | [6] -0.218 | saracatinib -0.088 | sotrastaurin -0.117 | Tubastatin A 0.039 | [7] -0.071 | defactinib -0.078 | rucaparib 0.196 | [8] 0.052 | encorafenib 0.111 | [9] -0.058

VPS51 (UniProt Q9UID3)
inactive: [1] -0.028 | [2] -0.036 | epoxomicin -0.015 | [3] 0.003 | [4] 0.032 | [5] 0.094 | [6] -0.135 | saracatinib -0.029 | sotrastaurin -0.097 | Tubastatin A 0.029 | [7] -0.011 | defactinib -0.056 | rucaparib 0.041 | [8] -0.034 | encorafenib 0.046 | [9] 0.002
active: volasertib -0.335

Taken from the entries so far (3 entries):
WDHD1 (UniProt O75717)
active: volasertib -0.458
inactive: [1] -0.209 | [2] 0.079 | epoxomicin 0.071 | [3] -0.033 | [4] 0.051 | [5] -0.063 | [6] -0.118 | saracatinib -0.027 | sotrastaurin -0.067 | Tubastatin A 0.079 | [7] 0.075 | defactinib -0.201 | rucaparib -0.06 | [8] 0 | encorafenib 0.119 | [9] -0.022

VPS28 (UniProt Q9UK41)
active: volasertib -0.3
inactive: [1] -0.057 | [2] 0.032 | epoxomicin 0.09 | [3] -0.048 | [4] 0.011 | [5] -0.038 | [6] -0.139 | saracatinib -0.101 | sotrastaurin -0.078 | Tubastatin A 0.072 | [7] 0.043 | defactinib -0.172 | rucaparib -0.044 | [8] -0.046 | encorafenib 0.082 | [9] -0.033

WDR18 (UniProt Q9BV38)
inactive: [1] 0.034 | volasertib -0.1 | [2] 0.022 | epoxomicin 0.016 | [3] -0.026 | [4] -0.017 | [5] 0.018 | [6] -0.002 | saracatinib 0.057 | sotrastaurin -0.001 | Tubastatin A 0.008 | [7] -0.032 | defactinib -0.051 | rucaparib -0.009 | [8] -0.038 | encorafenib 0.001 | [9] 0.003

Next entries

VTN (UniProt P04004)
inactive: [1] 0.025 | volasertib 0.181 | [2] -0.018 | epoxomicin -0.335 | [10] 0.042 | [4] -0.158 | rosiglitazone 0.107 | [5] 0.38 | saracatinib -0.109 | sotrastaurin 0.166 | alvocidib -0.147 | Tubastatin A -0.031 | [7] 0.079 | defactinib 0.041 | rucaparib -0.04 | [8] 0.027 | encorafenib 0.099 | [9] 0.136

WAPL isoform 3 (UniProt Q7Z5K2)
active: volasertib -0.61
inactive: [1] -0.183 | [2] 0.164 | epoxomicin 0.101 | [3] 0.015 | [4] 0.104 | [5] -0.018 | [6] -0.246 | saracatinib 0.043 | sotrastaurin -0.144 | Tubastatin A 0.063 | [7] -0.008 | defactinib -0.265 | rucaparib -0.066 | [8] -0.052 | encorafenib 0.212 | [9] -0.079

VPS13B (UniProt Q7Z7G8)
inactive: [1] -0.01 | volasertib -0.088 | [2] 0.004 | epoxomicin 0.019 | [3] -0.008 | [4] -0.028 | [5] -0.053 | [6] -0.109 | saracatinib 0.033 | sotrastaurin 0.016 | Tubastatin A 0.032 | [7] -0.002 | defactinib 0.009 | rucaparib -0.039 | [8] -0.016 | encorafenib 0.031 | [9] -0.01

XIAP (UniProt P98170)
active: volasertib -0.457
inactive: [1] -0.135 | [2] 0.094 | epoxomicin 0 | [3] 0 | [4] 0.071 | [5] -0.101 | [6] -0.131 | saracatinib -0.149 | sotrastaurin -0.119 | Tubastatin A 0.002 | [7] -0.033 | defactinib -0.12 | rucaparib 0.107 | [8] -0.075 | encorafenib 0.081 | [9] 0.033

WASHC3 (UniProt Q9Y3C0)
active: [6] -0.245
inactive: [1] -0.015 | volasertib -0.066 | [2] -0.058 | epoxomicin 0.067 | [3] 0.007 | [4] -0.002 | [5] -0.03 | saracatinib 0.055 | sotrastaurin 0.026 | Tubastatin A 0.054 | [7] 0.004 | defactinib -0.02 | rucaparib -0.022 | [8] -0.02 | encorafenib -0.005 | [9] 0.008

WDR11 (UniProt Q9BZH6)
active: rucaparib -0.382
inactive: [1] 0.079 | volasertib 0.031 | [2] -0.183 | epoxomicin 0 | [3] 0.089 | [4] -0.061 | [5] 0.009 | [6] -0.131 | saracatinib -0.079 | sotrastaurin 0.059 | Tubastatin A -0.029 | [7] -0.021 | defactinib 0.016 | [8] -0.052 | encorafenib -0.034 | [9] 0.017

VTA1 (UniProt Q9NP79)
active: volasertib -0.291
inactive: [1] -0.172 | [2] 0.06 | epoxomicin 0.024 | [3] -0.045 | [4] 0.048 | [5] -0.041 | [6] -0.079 | saracatinib 0.028 | sotrastaurin -0.022 | Tubastatin A -0.046 | [7] 0.045 | defactinib -0.029 | rucaparib 0.011 | [8] -0.011 | encorafenib 0.023 | [9] -0.033

WASHC2A (UniProt Q641Q2)
inactive: [1] -0.058 | volasertib -0.15 | [2] 0.026 | epoxomicin 0.022 | [3] 0.052 | [4] -0.046 | [5] 0.037 | [6] -0.18 | saracatinib 0.013 | sotrastaurin 0.001 | Tubastatin A 0.016 | [7] 0.015 | defactinib 0.01 | rucaparib 0.045 | [8] -0.039 | encorafenib 0.019 | [9] 0.017

WDR62 isoform 4 (UniProt O43379)
active: volasertib -0.496
inactive: [1] -0.02 | [2] 0.04 | epoxomicin 0 | [3] 0.007 | [4] -0.035 | [5] 0.047 | [6] -0.161 | saracatinib -0.025 | sotrastaurin 0.037 | Tubastatin A 0.027 | [7] -0.165 | defactinib -0.06 | rucaparib -0.035 | [8] 0.017 | encorafenib 0.015 | [9] 0.014

VRK1 (UniProt Q99986)
inactive: [1] -0.184 | volasertib -0.159 | [2] 0.102 | epoxomicin 0.169 | [3] -0.06 | [4] 0.135 | [5] -0.028 | [6] -0.03 | saracatinib -0.057 | sotrastaurin 0.152 | Tubastatin A 0.07 | [7] 0.05 | defactinib -0.041 | rucaparib 0.048 | [8] 0.108 | encorafenib 0.043 | [9] -0.04

WDR4 (UniProt P57081)
inactive: [1] -0.031 | volasertib -0.072 | [2] 0.025 | epoxomicin 0.074 | [3] -0.06 | [4] 0.022 | [5] -0.08 | [6] -0.114 | saracatinib 0.008 | sotrastaurin 0.071 | Tubastatin A 0.018 | [7] -0.022 | defactinib -0.027 | rucaparib -0.079 | [8] 0.024 | encorafenib 0.041 | [9] -0.033

WDR61 (UniProt Q9GZS3)
active: [6] -0.247
inactive: [1] 0.067 | volasertib 0.102 | [2] 0.035 | epoxomicin -0.029 | [3] 0.035 | [4] -0.011 | [5] -0.066 | saracatinib -0.011 | sotrastaurin 0.064 | Tubastatin A -0.011 | [7] -0.005 | defactinib -0.012 | rucaparib -0.012 | [8] -0.007 | encorafenib -0.028 | [9] 0.031

VPS18 (UniProt Q9P253)
inactive: [1] -0.22 | [2] 0.086 | epoxomicin -0.019 | [3] -0.059 | [4] 0.046 | [5] 0.005 | [6] -0.231 | saracatinib -0.034 | sotrastaurin -0.156 | Tubastatin A -0.052 | [7] -0.003 | defactinib -0.068 | rucaparib 0.099 | [8] 0.029 | encorafenib 0.031 | [9] -0.076
active: volasertib -0.398

WDR7 (UniProt Q9Y4E6)
active: volasertib -0.415
inactive: [1] -0.09 | [2] 0.027 | epoxomicin -0.007 | [3] -0.007 | [4] 0.279 | [5] 0.034 | [6] -0.199 | saracatinib 0.024 | sotrastaurin 0.041 | Tubastatin A -0.047 | [7] -0.114 | defactinib -0.3 | rucaparib 0.128 | [8] -0.015 | encorafenib -0.174 | [9] -0.373
